Measurements published in patent US10563263B2, “Genetic polymorphisms associated with statin response and cardiovascular diseases, methods of detection and uses thereof” (CELERA CORPORATION, priority 2010, dated 2020).
The source gives many values for each of these; only a part stands here.

System: revascularization, unstable angina requiring hospitalization, MI, all causes of death, or stroke
Assay: PROVE IT-TIMI 22: SNP by treatment interaction (high-dose atorvastatin vs standard-dose pravastatin), logistic regression (synergy index), primary composite endpoint
Format: in vivo, human

CC(C)c1c(C(=O)Nc2ccccc2)c(-c2ccccc2)c(-c2ccc(F)cc2)n1CC[C@@H](O)C[C@@H](O)CC(=O)O [Atorvastatin, atorvastatin]
OR (rs10784891, allele C, ADD, Imputed, atorvastatin vs pravastatin): 0.7472 | OR (rs10784891, allele C, DOM, Imputed): 0.7374 | OR (rs10784891, allele C, DOM, Imputed, atorvastatin vs pravastatin): 0.7374 | OR (rs10787923, allele G, DOM, Imputed): 1.448 | OR (rs10787923, allele G, DOM, Imputed, atorvastatin vs pravastatin): 1.448 | OR (rs10787924, allele T, DOM, Imputed, atorvastatin vs pravastatin): 1.341 | OR (rs10787949, allele A, DOM, Imputed): 1.352 | OR (rs10787949, allele A, DOM, Imputed, atorvastatin vs pravastatin): 1.352 | OR (rs10787951, allele G, DOM, Imputed): 1.349 | OR (rs10787951, allele G, DOM, Imputed, atorvastatin vs pravastatin): 1.349 | OR (rs10787983, allele C, DOM, Imputed): 1.351 | OR (rs10787983, allele C, DOM, Imputed, atorvastatin vs pravastatin): 1.351 | OR (rs10788380, allele C, ADD, Imputed): 1.318 | OR (rs10788380, allele C, DOM, Imputed): 1.663 | OR (rs10794733, allele C, ADD, Imputed, atorvastatin vs pravastatin): 0.6594 | OR (rs10814418, allele G, DOM, Imputed): 1.184 | OR (rs10818280, allele C, DOM, Imputed, atorvastatin vs pravastatin): 0.6208 | OR (rs10831417, allele A, ADD, Imputed): 1.151 | OR (rs10860586, allele A, ADD, Imputed, atorvastatin vs pravastatin): 0.9019 | OR (rs10870473, allele A, DOM, Imputed, atorvastatin vs pravastatin): 1.887 | OR (rs10871302, allele A, DOM, Imputed): 2.011 | OR (rs10877463, allele C, DOM, Imputed): 0.5826 | OR (rs10877468, allele C, DOM, Imputed): 0.5848 | OR (rs10879240, allele C, ADD, Imputed): 0.7296 | OR (rs10879240, allele C, ADD, Imputed, atorvastatin vs pravastatin): 0.7296 | OR (rs10879242, allele A, ADD, Imputed, atorvastatin vs pravastatin): 0.7715 | OR (rs10879242, allele A, DOM, Imputed): 0.7102 | OR (rs10879242, allele A, DOM, Imputed, atorvastatin vs pravastatin): 0.7102 | OR (rs10879245, allele G, ADD, Imputed, atorvastatin vs pravastatin): 0.7715 | OR (rs10879245, allele G, DOM, Imputed): 0.7102 | OR (rs10879245, allele G, DOM, Imputed, atorvastatin vs pravastatin): 0.7102 | OR (rs10879249, allele T, ADD, Imputed, atorvastatin vs pravastatin): 0.7823 | OR (rs10879249, allele T, DOM, Imputed): 0.7247 | OR (rs10879249, allele T, DOM, Imputed, atorvastatin vs pravastatin): 0.7247 | OR (rs10886429, allele A, DOM, Imputed, atorvastatin vs pravastatin): 1.296 | OR (rs10886449, allele G, DOM, Imputed, atorvastatin vs pravastatin): 1.337 | OR (rs10886451, allele G, DOM, Imputed, atorvastatin vs pravastatin): 1.337 | OR (rs10886456, allele G, DOM, Imputed, atorvastatin vs pravastatin): 1.337 | OR (rs10886463, allele C, DOM, Imputed): 1.352 | OR (rs10886463, allele C, DOM, Imputed, atorvastatin vs pravastatin): 1.352 | OR (rs10886465, allele A, DOM, Imputed): 1.355 | OR (rs10886465, allele A, DOM, Imputed, atorvastatin vs pravastatin): 1.355 | OR (rs10902437, allele G, ADD, Imputed): 1.494 | OR (rs10922903, allele C, REC, Imputed, atorvastatin vs pravastatin): 0.9678 | OR (rs10941126, allele G, ADD, Imputed): 0.9741 | OR (rs10941126, allele G, ADD, Imputed, atorvastatin vs pravastatin): 0.9741 | OR (rs10941126, allele G, DOM, Imputed): 1.136 | OR (rs10941126, allele G, DOM, Imputed, atorvastatin vs pravastatin): 1.136 | OR (rs10947871, allele A, DOM, Imputed): 2.143 | OR (rs10947980, allele G, ADD, Imputed, atorvastatin vs pravastatin): 1.004 | OR (rs10973012, allele A, DOM, Imputed): 1.177 | OR (rs10974028, allele G, ADD, Genotyped): 1.203 | OR (rs11059376, allele T, ADD, Imputed, atorvastatin vs pravastatin): 1.086 | OR (rs11072995, allele T, REC, Imputed, atorvastatin vs pravastatin): 2.198 | OR (rs11081202, allele G, REC, Genotyped, atorvastatin vs pravastatin): 3.218 | OR (rs11099644, allele G, REC, Imputed): 0.7905 | OR (rs11124962, allele A, DOM, Imputed, atorvastatin vs pravastatin): 1.26 | OR (rs11138315, allele G, ADD, Imputed): 0.5453 | OR (rs11149802, allele T, DOM, Imputed): 2.011 | OR (rs11178531, allele A, ADD, Imputed): 0.7197 | OR (rs11178531, allele A, ADD, Imputed, atorvastatin vs pravastatin): 0.7197 | OR (rs11178531, allele A, DOM, Imputed): 0.6936 | OR (rs11178531, allele A, DOM, Imputed, atorvastatin vs pravastatin): 0.6936 | OR (rs11178575, allele C, REC, Imputed): 2.252 | OR (rs11178577, allele T, REC, Imputed): 2.243 | OR (rs11178583, allele A, ADD, Imputed, atorvastatin vs pravastatin): 0.7883 | OR (rs11178583, allele A, DOM, Imputed): 0.7338 | OR (rs11178583, allele A, DOM, Imputed, atorvastatin vs pravastatin): 0.7338 | OR (rs11178589, allele T, ADD, Imputed, atorvastatin vs pravastatin): 0.7796 | OR (rs11178589, allele T, DOM, Imputed): 0.7215 | OR (rs11178589, allele T, DOM, Imputed, atorvastatin vs pravastatin): 0.7215 | OR (rs11178594, allele C, ADD, Imputed, atorvastatin vs pravastatin): 0.7716 | OR (rs11178594, allele C, DOM, Imputed): 0.7044 | OR (rs11178594, allele C, DOM, Imputed, atorvastatin vs pravastatin): 0.7044 | OR (rs11178602, allele T, ADD, Imputed, atorvastatin vs pravastatin): 0.7699 | OR (rs11178602, allele T, DOM, Imputed): 0.7005 | OR (rs11178602, allele T, DOM, Imputed, atorvastatin vs pravastatin): 0.7005 | OR (rs11178648, allele T, ADD, Imputed, atorvastatin vs pravastatin): 0.754 | OR (rs11178648, allele T, DOM, Imputed): 0.6786 | OR (rs11178648, allele T, DOM, Imputed, atorvastatin vs pravastatin): 0.6786 | OR (rs11221075, allele A, ADD, Imputed): 0.4912 | OR (rs11221075, allele A, ADD, Imputed, atorvastatin vs pravastatin): 0.4912 | OR (rs11242020, allele T, DOM, Imputed): 0.593 | OR (rs11242020, allele T, DOM, Imputed, atorvastatin vs pravastatin): 0.593 | OR (rs11242021, allele T, DOM, Imputed): 0.5934 | OR (rs11242021, allele T, DOM, Imputed, atorvastatin vs pravastatin): 0.5934 | OR (rs11242022, allele T, DOM, Imputed): 0.5934 | OR (rs11242022, allele T, DOM, Imputed, atorvastatin vs pravastatin): 0.5934 | OR (rs11242023, allele T, DOM, Imputed): 0.5934 | OR (rs11242023, allele T, DOM, Imputed, atorvastatin vs pravastatin): 0.5934 | OR (rs11576627, allele T, ADD, Imputed): 1.439 | OR (rs11576627, allele T, ADD, Imputed, atorvastatin vs pravastatin): 1.439 | OR (rs11576627, allele T, DOM, Imputed): 1.57 | OR (rs11576627, allele T, DOM, Imputed, atorvastatin vs pravastatin): 1.57 | OR (rs11602189, allele A, DOM, Imputed): 0.8739 | OR (rs11605163, allele A, DOM, Imputed): 1.075 | OR (rs11615214, allele G, ADD, Imputed): 0.7544 | OR (rs11630050, allele G, REC, Imputed, atorvastatin vs pravastatin): 1.888 | OR (rs11633024, allele C, REC, Imputed, atorvastatin vs pravastatin): 1.888 | OR (rs11636298, allele G, REC, Imputed, atorvastatin vs pravastatin): 1.965 | OR (rs11637363, allele C, REC, Imputed, atorvastatin vs pravastatin): 1.982 | OR (rs11637813, allele A, REC, Imputed, atorvastatin vs pravastatin): 1.888 | OR (rs11638043, allele C, REC, Imputed, atorvastatin vs pravastatin): 1.982 | OR (rs11638115, allele A, REC, Imputed, atorvastatin vs pravastatin): 2.198 | OR (rs11642394, allele C, DOM, Imputed): 2.011 | OR (rs11644943, allele A, ADD, Imputed): 1.464 | OR (rs11656608, allele T, DOM, Imputed): 0.5127 | OR (rs11661309, allele A, ADD, Imputed): 0.8005 | OR (rs11661309 allele A DOM Imputed): 0.8571 | OR (rs11666131 allele A ADD Imputed): 1.074 | OR (rs11682946, allele A, ADD, Imputed, atorvastatin vs pravastatin): 3.591 | OR (rs11682946, allele A, DOM, Imputed, atorvastatin vs pravastatin): 3.591 | OR (rs11717157, allele T, ADD, Imputed, atorvastatin vs pravastatin): 1.051 | OR (rs11724055, allele A, DOM, Imputed, atorvastatin vs pravastatin): 0.5373 | OR (rs11743355, allele C, ADD, Imputed, atorvastatin vs pravastatin): 0.9741 | OR (rs11743355 allele C ADD Imputed): 0.9741 | OR (rs11743355 allele C DOM Imputed): 1.136 | OR (rs11743355 allele C, DOM, Imputed, atorvastatin vs pravastatin): 1.136 | OR (rs11746806 allele T ADD Imputed): 0.9741 | OR (rs11746806 allele T DOM Imputed): 1.136 | OR (rs11746806 allele T, ADD, Imputed, atorvastatin vs pravastatin): 0.9741 | OR (rs11746806 allele T, DOM, Imputed, atorvastatin vs pravastatin): 1.136 | OR (rs11746959 allele T ADD Imputed): 0.9741 | OR (rs11746959 allele T DOM Imputed): 1.136 | OR (rs11746959 allele T, ADD, Imputed, atorvastatin vs pravastatin): 0.9741 | OR (rs11746959 allele T, DOM, Imputed, atorvastatin vs pravastatin): 1.136 | OR (rs11749272 allele T DOM Imputed): 0.593
